# Reference: paper doi:10.1101/2025.05.12.653341
# The chains behind the UniProt entries cited, without tags or fusion partners.
# UniProt P05412: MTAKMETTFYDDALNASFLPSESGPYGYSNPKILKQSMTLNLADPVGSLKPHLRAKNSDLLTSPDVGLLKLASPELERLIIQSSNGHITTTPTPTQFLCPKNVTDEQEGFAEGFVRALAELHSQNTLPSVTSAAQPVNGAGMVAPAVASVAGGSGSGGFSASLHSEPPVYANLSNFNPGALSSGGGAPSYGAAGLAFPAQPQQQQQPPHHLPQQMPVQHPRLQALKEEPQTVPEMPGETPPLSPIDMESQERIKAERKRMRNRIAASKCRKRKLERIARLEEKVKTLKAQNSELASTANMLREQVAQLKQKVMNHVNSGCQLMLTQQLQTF
# These are yes or no findings as the source states them, for the method shown. Binding seen in cells or lysates may run through a third protein. Some entries that bind do so weakly or less than the wild type. Sequences can lack the tags named with a protein.
# Target: T1, ZMAT3-3xFLAG-2xHA (UniProt Q9HA38)
# T1 sequence: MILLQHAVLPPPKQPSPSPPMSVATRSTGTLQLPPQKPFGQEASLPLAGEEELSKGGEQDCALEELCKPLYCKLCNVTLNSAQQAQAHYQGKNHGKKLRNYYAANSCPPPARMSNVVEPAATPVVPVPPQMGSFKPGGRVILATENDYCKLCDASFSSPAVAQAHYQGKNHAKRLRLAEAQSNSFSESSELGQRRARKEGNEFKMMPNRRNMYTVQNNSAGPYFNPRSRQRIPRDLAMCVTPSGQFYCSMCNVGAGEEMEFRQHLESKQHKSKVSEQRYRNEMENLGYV
# Experiment: co-IP; anti-FLAG M2 magnetic beads, whole cell lysates of untreated or doxycycline-treated ZMAT3-FLAG-HA HCT116 cells; 10 mM Tris/Cl pH 7.5, 150 mM NaCl, 0.5 mM EDTA, 0.5 % NP40; overnight at 4°C; eluted with 3xFLAG peptide; immunoblotting
substance,measurement,value
JUN (c-Jun) (from UniProt P05412 1-331),binding,binds
